Results published in article PMC4176340, “Structure and function of TatD exonuclease in DNA repair”.
No constants are given. Whether binding was seen depends on the method and setting. Tags and fused reporters may be left off the sequences shown.

Molecular target: Escherichia coli TatD, full-length, with a C-terminal His-tag (E. coli) (UniProt P27859)
Experiment: SEC; gel filtration on Superdex 200 16/60 PG, pH 7.2; purified full-length TatD alone; both purified

binding: no binding
B1: Escherichia coli TatD, full-length, with a C-terminal His-tag (enzyme, UniProt P27859 1-260)
chain: MFDIGVNLTSSQFAKDRDDVVACAFDAGVNGLLITGTNLRESQQAQKLARQYSSCWSTAGVHPHDSSQWQAATEEAIIELAAQPEVVAIGECGLDFNRNFSTPEEQERAFVAQLRIAADLNMPVFMHCRDAHERFMTLLEPWLDKLPGAVLHCFTGTREEMQACVAHGIYIGITGWVCDERRGLELRELLPLIPAEKLLIETDAPYLLPRDLTPKPSSRRNEPAHLPHILQRIAHWRGEDAAWLAATTDANVKTLFGIAF
